Results taken from patent US7235584B2, “Non-psychotropic cannabinoids” (Pharmos Corporation, priority 2000, dated 2007).

Tested on: transient MCAo in rats
Test: Transient MCAo evaluated by the staircase test
Format: in vivo, Sprague Dawley rats
Settings: mild food deprivation
Excerpt: The test challenges fine motor, sensory and stereognostic function of the cortex in enabling the forepaw (hand) to identify, grasp and accurately manipulate small objects such as food pellets. Loss of the ability to identify, grasp and manipulate small objects reflects a lesion of the fronto-parietal cortex and is a common and crippling deficit after stroke in humans.
The materials for this procedure are identical to those from Physiological Example 5, except for the different concentrations of PRS-211,095. The procedural differences are as follows: • Male Sprague Dawley rats, 230–270 gr (Harlan, Israel) were used. The following compounds and their respective concentrations were tested:
Dexanabinol and analogs PRS-211,095 and PRS-211,220 in PEG ethanol cosolvent 50 mg/ml. Dexanabinol, the analogs and their vehicle were diluted in Intralipid® 20% (Pharmacia) prior to drug administration.
The procedure is essentially as described in Montoya et al. (Montoya, Campbell-Hope, Pemberton and Dunnet, J. Neurosci. Meth. 36:219–228,1991) Animals were kept under mild food deprivation for 3–5 days, receiving 15-gr. food once a day (between 16:00 and 17:00) and free access to water.
In brief, the staircase box contains two rows of seven stairs in each. Two 45 mg food pellets were placed on each step. Animals were placed in the box for 15 minutes sessions. At the end of the session the number of eaten (grasped) and displaced pellets was counted and recorded. Animals were tested twice a day, 4 hours apart. The first session was performed between 8–9 AM and second between 12–13 PM. The animals were trained until they grasped (ate) at least 8 pellets from each set of stairs for two consecutive sessions. Up to one week after the end of the successful training session the animals underwent transient MCAo.
Transient MCAO was performed in essentially the same manner as described in Physiological example 5 with the following modification at step i:
Two minutes prior to thread removal rats were re-anesthetized and administered IV with Dexanabinol 5 mg/kg, analogs
PRS-211,220 or PRS-211,095 at 0.5, 2.5, 5 or 10 mg/kg or vehicle 5 ml/kg. One additional group was sham-treated.
Animals were allowed to recover from the surgery for five days. The mild food deprivation was re-employed during the days following the ischemic insult. They were tested in the staircase box using the above method for 9–12 days. Animals were weighed twice a week during this period.
At the end of the evaluation period, animals were euthanized with pentobarbitone 100 mg/kg IP. The animals were perfused through the heart with heparinized 4% formaldehyde solution in PBS (pH 7.4). Brains were then removed, and kept in the same solution for at least 24h. Then the brains—from the rostral side of the cortex to the cerebellum—were sunk in 30% sucrose in PBS, cryosectioned (20 μm), dried and stained with thionin for histological evaluation of the brain infarct volume. Eight sections at the levels of: 3.3;+2.8;+1.8; +0.8; −0.4;−1.4; −2.2; and −3.4 from Bregma were measured (Swanson, Rat Brain Atlas, 1992). Sections were captured by a CCD camera (V-tech MP-470) and image analyzed (Scion image 1.62A). Infarct size was determined from the series of the 8 sections by either calculation of the infarct volume (mm3) by summing the series of mean lesion areas of two adjacent sections multiplied by the distance between them or calculation of the mean infarct size as percentage of the contralateral hemisphere size; calculation of the mean of the surviving ipsilateral side as percentage of the contralateral hemisphere size; calculation of the mean ipsilateral side ventricle as percentage of the contralateral hemisphere ventricle.
• a. The infarct size was compared using ANOVA (analysis of variance) followed by Duncan's post hoc test. • b. The staircase task performance was evaluated after collecting the data and compressing it into four blocks of six trials: […]

Row | SMILES | body weight gain compared to base line (5 mg/kg) [%] | body weight gain compared to base line (0.1 mg/kg) [%] | body weight gain compared to base line (0.5 mg/kg) | body weight gain compared to base line (2.5 mg/kg) | body weight gain compared to base line (10 mg/kg) [%]
1 | CCCCCCC(C)(C)c1cc(O)c2c(c1)OC(C)(C)[C@H]1CC=C(CO)CC21 (stereo partly drawn) [211,007-000, 1,1 dimethyl heptyl-(3S,4S)-7-hydroxy-Δ^6-tetrahydrocannabinol, reference compound] | 7 |  |  |  | 
2 | CCCCCCC(C)(C)c1cc(O)c2c(c1)OC(C)(C)[C@H]1CC=C(Cn3cccn3)C[C@H]21 [211,220-000, (+)-(3S,4S)-6,6-Dimethyl-(1,1-dimethylheptyl)-1-hydroxy-9-(pyrazolomethyl)-6a,7,10,10a-tetrahydro-6H-dibenzo[b,d]pyran] | 4 | 3 | 10% | 5% | 
3 | CCCCCCC(C)(C)c1cc(O)c2c(c1)OC(C)(C)C1CC=C(Cn3ccnc3)CC21.Cl (single isomer, unassigned; (+)) [211,095-000, (+)-(3S ,4S )-6,6-Dimethyl-(1,1-dimethylheptyl)-1-hydroxy-9-(imidazolomethyl)-6a,7,10,10a-tetrahydro-6H-dibenzo[b,d]pyran] | 4 |  | did not gain weight | did not gain weight | 17
